# According to article PMC6850887:
# The chains behind the UniProt entries cited, without tags or fusion partners.
# UniProt P93002: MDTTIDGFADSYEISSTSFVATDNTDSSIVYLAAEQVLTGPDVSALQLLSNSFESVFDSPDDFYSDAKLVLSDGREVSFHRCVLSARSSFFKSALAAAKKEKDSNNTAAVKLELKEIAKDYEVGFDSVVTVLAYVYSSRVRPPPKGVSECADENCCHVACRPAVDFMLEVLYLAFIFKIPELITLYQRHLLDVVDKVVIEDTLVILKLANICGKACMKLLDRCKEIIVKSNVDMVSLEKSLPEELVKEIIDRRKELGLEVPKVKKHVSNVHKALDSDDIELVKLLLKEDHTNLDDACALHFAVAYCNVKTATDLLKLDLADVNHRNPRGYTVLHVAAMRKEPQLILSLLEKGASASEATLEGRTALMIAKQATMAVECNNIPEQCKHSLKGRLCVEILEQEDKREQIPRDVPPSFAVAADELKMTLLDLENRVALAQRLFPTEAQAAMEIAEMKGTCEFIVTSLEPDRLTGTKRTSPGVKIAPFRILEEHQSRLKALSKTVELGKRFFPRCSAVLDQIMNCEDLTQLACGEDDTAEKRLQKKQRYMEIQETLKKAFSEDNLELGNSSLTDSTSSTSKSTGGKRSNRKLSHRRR
# Results are given in words; binding and its absence hold for the method and conditions named. Binding seen in cells or lysates may run through a third protein. Some results given as binding are weak or reduced against the parent protein; the word gives no strength. Tags and fused reporters may be left off the sequences shown.
# T1: FLAG-tagged UBP6 (Arabidopsis thaliana) (UniProt Q949Y0)
# T1 sequence: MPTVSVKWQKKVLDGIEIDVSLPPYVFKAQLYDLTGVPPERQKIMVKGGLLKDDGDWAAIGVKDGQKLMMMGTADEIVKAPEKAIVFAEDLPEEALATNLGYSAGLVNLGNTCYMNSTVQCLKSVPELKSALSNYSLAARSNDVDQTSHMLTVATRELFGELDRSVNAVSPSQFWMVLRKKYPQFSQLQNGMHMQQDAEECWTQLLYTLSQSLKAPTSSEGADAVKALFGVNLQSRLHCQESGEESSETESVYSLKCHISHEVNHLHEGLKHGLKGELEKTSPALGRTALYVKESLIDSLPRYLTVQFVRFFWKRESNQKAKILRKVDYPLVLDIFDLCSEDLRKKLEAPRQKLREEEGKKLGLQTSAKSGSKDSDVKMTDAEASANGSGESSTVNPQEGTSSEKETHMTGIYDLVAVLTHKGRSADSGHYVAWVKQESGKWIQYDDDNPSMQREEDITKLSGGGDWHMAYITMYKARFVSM
# B1: FLAG-UBE4 (enzyme, UniProt Q9LF41 1-1038)
# chain: MATSKPQRSPAEIEDIILRKIFYVTLTESTDSDPRIVYLEMTAAEILSEGKELLLSRDLMERVLIDRLSGDFSDAEPPFPYLIGCHRRAYDESKKIQSMKDKNLRSEMEIVTKQAKKLAVSYCRIHLGNPDMFGNSDKPSGGLDNRLKKRNVSPVLPLIFAEVGSGSLDMFGASSSGVQAPPGFLDEFFKDSDFDSLDSILKELYEDLRSTVINVSVLGDFQPPLRALKYLVSLPVGAKSLVSHEWWVPRGAYMNGRAMELTSILGPFFHISALPDNTLFKSQPDVGQQCFSEASERRPADLLSSFSTIKNFMNILYSGLHDVLMILLKSTDTRERVLQFLAEVINANASRAHIQVDPVSCASSGMFVNLSAVMLRLCEPFLDPHLTKRDKIDPKYAFCGHRLKLSDLTALHASSEEVTEWIGKDAMANANDAGRENGNESRLLQSKEATSSSSNASGQNAKSATKYTFICECFFMTARVLNLGLLKALSDFKHLAQDISRGEDNLATLKAMRDQAPSPQLELDISRMEKELELSSQEKLCHEAQILRDGDFIQRALSFYRLMVVWLVGLVGGFKMPLPSTCPMEFSCMPEHFVEDAMELLIFASRIPKALDGVPLDDFMNFIIMFMASPEYVRNPYLRAKMVEVLNCWMPRSSSSSSATSTLFEGHQLSLEYLVRNLLKLYVDIEFTGSHTQFYDKFNIRHNIAELLEYLWQVPSHRNAWRRIAKDEEKGVYLNFLNFLVNDSIYLLDESLNKILEIKQIEADMSNTAEWEQRPTQERQERTRLFHSQENIVRIDMKLANEDVTMLAFTSEEITAPFLLPEMVERVANMLNYFLLQLVGPQRKSLSLKDPEKYEFRPKQLLKQIVRIYVNLARGDTVNIFPGAISSDGRSYNEQLFNAGADVLRRIGEEGRIIQEFMELGTKAKAAASEALDAEAALGEIPDEFLDPIQYTLMRDPVILPSSRITVDRPIIQRHLLSDNHDPFNRAHLTSDMLIPDIELKAKIDEFVKSHQSKKRTSGEDSSNKERIQTTNSDMLID
# B2: proteasomal subunit S5a (protein, UniProt P55034 1-386)
# chain: MVLEATMICIDNSEWMRNGDYSPSRLQAQTEAVNLLCGAKTQSNPENTVGILTMAGKGVRVLTTPTSDLGKILACMHGLDVGGEINLTAAIQIAQLALKHRQNKNQRQRIIVFAGSPIKYEKKALEIVGKRLKKNSVSLDIVNFGEDDDEEKPQKLEALLTAVNNNDGSHIVHVPSGANALSDVLLSTPVFTGDEGASGYVSAAAAAAAAGGDFDFGVDPNIDPELALALRVSMEEERARQEAAAKKAADEAGQKDKDGDTASASQETVARTTDKNAEPMDEDSALLDQAIAMSVGDVNMSEAADEDQDLALALQMSMSGEESSEATGAGNNLLGNQAFISSVLSSLPGVDPNDPAVKELLASLPDESKRTEEEESSSKKGEDEKK
# Assays:
# [1] = biological target: polyubiquitinated NPR1-GFP (Arabidopsis thaliana) (UniProt P93002); experiment: pull-down; polyubiquitinated NPR1-GFP purified from SA- and MG132-treated seedlings and held on GFP-Trap agarose, incubated for 2 hr with in vitro synthesised FLAG-UBE4; immunoblots with GFP and FLAG antibodies; only the target purified
# [2] = biological target: T1, FLAG-tagged UBP6 (Arabidopsis thaliana); experiment: co-IP; FLAG-UBP6 immunoprecipitated overnight at 4°C with anti-FLAG M2 affinity gel from seedling extract in proteasome extraction buffer (50 mM Tris-HCl pH 7.4, 25 mM NaCl, 2 mM MgCl2, 1 mM EDTA, 10 mM ATP, 5% glycerol); immunoblots against S5a and RPN6
Binder,binding [1],binding [2]
B1,binds,–
B2,–,binds
